Results deposited as PubChem BioAssay AID1224830 (NIAID, 2016)

Assay: 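Regulators of TLR4 signalling towards TNF-alpha in macrophage-like cells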 (primary screen)
Cell system: human THP-1 monocytic leukaemia cells, TNF dual-luciferase reporter clone, PMA-differentiated to macrophage-like cells
Knock-down reagent: siRNA pool against human genes, 50 nM
Time to read-out: LPS for 4 h, given about 3 days after siRNA transfection
Conditions: bacterial LPS (TLR4 ligand), 10 ng/ml
Detection: 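Ratio of firefly to renilla light, scaled to the plate median and expressed as a robust z-score per replicate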
Direction: TNF reporter robust z-score: higher = stronger TNF reporter response to LPS
Active means: 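Each well counts as active if its z-score is over 2.8 or under -1.5; controls are left without a call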
The whole screen tested about 18,000 reagents; this is an unselected part. In the full data, about 2,900 (16%) are marked active. 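Calls are made per well; low scores hint the gene aids the LPS response, high scores that it dampens it.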 Repeated entries: four replicate wells of each siRNA pool.

gene	TNF reporter robust z-score	outcome
SSH3 (slingshot protein phosphatase 3)	-1.24	inactive
SSH3 (slingshot protein phosphatase 3)	-0.21	inactive
SSH3 (slingshot protein phosphatase 3)	-1.05	inactive
SSH3 (slingshot protein phosphatase 3)	0.14	inactive
TMEM243 (transmembrane protein 243)	-0.21	inactive
TMEM243 (transmembrane protein 243)	-0.25	inactive
TMEM243 (transmembrane protein 243)	-0.45	inactive
TMEM243 (transmembrane protein 243)	0.44	inactive
C1orf74 (chromosome 1 open reading frame 74)	0.01	inactive
C1orf74 (chromosome 1 open reading frame 74)	-0.54	inactive
C1orf74 (chromosome 1 open reading frame 74)	-0.86	inactive
C1orf74 (chromosome 1 open reading frame 74)	-0.49	inactive
POLR1C (RNA polymerase I and III subunit C)	1.01	inactive
POLR1C (RNA polymerase I and III subunit C)	0.27	inactive
POLR1C (RNA polymerase I and III subunit C)	3.84	active
POLR1C (RNA polymerase I and III subunit C)	1.62	inactive
ZC3H4 (zinc finger CCCH-type containing 4)	-0.66	inactive
ZC3H4 (zinc finger CCCH-type containing 4)	-0.59	inactive
ZC3H4 (zinc finger CCCH-type containing 4)	-0.97	inactive
ZC3H4 (zinc finger CCCH-type containing 4)	-0.94	inactive
HAAO (3-hydroxyanthranilate 3,4-dioxygenase)	-0.41	inactive
HAAO (3-hydroxyanthranilate 3,4-dioxygenase)	-0.34	inactive
HAAO (3-hydroxyanthranilate 3,4-dioxygenase)	-0.18	inactive
HAAO (3-hydroxyanthranilate 3,4-dioxygenase)	0.32	inactive
KLC2 (kinesin light chain 2)	-0.85	inactive
KLC2 (kinesin light chain 2)	-1.84	active
KLC2 (kinesin light chain 2)	0.06	inactive
KLC2 (kinesin light chain 2)	-0.18	inactive
CATSPERE (catsper channel auxiliary subunit epsilon)	-0.88	inactive
CATSPERE (catsper channel auxiliary subunit epsilon)	0.12	inactive
CATSPERE (catsper channel auxiliary subunit epsilon)	0.43	inactive
CATSPERE (catsper channel auxiliary subunit epsilon)	-0.26	inactive
UNC5B (unc-5 netrin receptor B)	-0.75	inactive
UNC5B (unc-5 netrin receptor B)	0.67	inactive
UNC5B (unc-5 netrin receptor B)	-0.68	inactive
UNC5B (unc-5 netrin receptor B)	1.78	inactive
C16orf90 (chromosome 16 open reading frame 90)	1.44	inactive
C16orf90 (chromosome 16 open reading frame 90)	2.33	inactive
C16orf90 (chromosome 16 open reading frame 90)	1.53	inactive
C16orf90 (chromosome 16 open reading frame 90)	1.89	inactive
LRP1B (LDL receptor related protein 1B)	-1.05	inactive
LRP1B (LDL receptor related protein 1B)	-0.31	inactive
LRP1B (LDL receptor related protein 1B)	-1.13	inactive
LRP1B (LDL receptor related protein 1B)	-0.5	inactive
JAM2 (junctional adhesion molecule 2)	-0.46	inactive
JAM2 (junctional adhesion molecule 2)	0.37	inactive
JAM2 (junctional adhesion molecule 2)	-0.63	inactive
JAM2 (junctional adhesion molecule 2)	0.31	inactive
QARS1 (glutaminyl-tRNA synthetase 1)	1.72	inactive
QARS1 (glutaminyl-tRNA synthetase 1)	0	inactive
QARS1 (glutaminyl-tRNA synthetase 1)	3.17	active
QARS1 (glutaminyl-tRNA synthetase 1)	2.26	inactive
ALG1L1P (ALG1 like 1, pseudogene)	0.66	inactive
ALG1L1P (ALG1 like 1, pseudogene)	1.09	inactive
ALG1L1P (ALG1 like 1, pseudogene)	-0.51	inactive
ALG1L1P (ALG1 like 1, pseudogene)	0.24	inactive
CAPZA1 (capping actin protein of muscle Z-line subunit alpha 1)	1.21	inactive
CAPZA1 (capping actin protein of muscle Z-line subunit alpha 1)	-0.5	inactive
CAPZA1 (capping actin protein of muscle Z-line subunit alpha 1)	-1.28	inactive
CAPZA1 (capping actin protein of muscle Z-line subunit alpha 1)	-0.61	inactive
CD58 (CD58 molecule)	1.85	inactive
CD58 (CD58 molecule)	0.4	inactive
CD58 (CD58 molecule)	1.33	inactive
CD58 (CD58 molecule)	1.23	inactive
TALDO1 (transaldolase 1)	0.88	inactive
TALDO1 (transaldolase 1)	1.33	inactive
TALDO1 (transaldolase 1)	0.54	inactive
TALDO1 (transaldolase 1)	0.24	inactive
TCAF2 (TRPM8 channel associated factor 2)	0.94	inactive
TCAF2 (TRPM8 channel associated factor 2)	-0.05	inactive
TCAF2 (TRPM8 channel associated factor 2)	-0.48	inactive
TCAF2 (TRPM8 channel associated factor 2)	-0.02	inactive
NABP2 (nucleic acid binding protein 2)	-0.88	inactive
NABP2 (nucleic acid binding protein 2)	0.27	inactive
NABP2 (nucleic acid binding protein 2)	0.95	inactive
NABP2 (nucleic acid binding protein 2)	0.89	inactive
TWIST2 (twist family bHLH transcription factor 2)	-1.5	inactive
TWIST2 (twist family bHLH transcription factor 2)	-1.59	active
TWIST2 (twist family bHLH transcription factor 2)	-1.3	inactive
TWIST2 (twist family bHLH transcription factor 2)	-0.96	inactive
ARL4C (ARF like GTPase 4C)	-1.28	inactive
ARL4C (ARF like GTPase 4C)	0.03	inactive
ARL4C (ARF like GTPase 4C)	-1.16	inactive
ARL4C (ARF like GTPase 4C)	0.31	inactive
FAT4 (FAT atypical cadherin 4)	-0.4	inactive
FAT4 (FAT atypical cadherin 4)	0.37	inactive
FAT4 (FAT atypical cadherin 4)	0.85	inactive
FAT4 (FAT atypical cadherin 4)	-1.06	inactive
SAC3D1 (SAC3 domain containing 1)	2.74	inactive
SAC3D1 (SAC3 domain containing 1)	4.6	active
SAC3D1 (SAC3 domain containing 1)	2.33	inactive
SAC3D1 (SAC3 domain containing 1)	3.36	active

Next part; the last 20 above are carried over.
gene	TNF reporter robust z-score	outcome
NABP2 (nucleic acid binding protein 2)	-0.88	inactive
NABP2 (nucleic acid binding protein 2)	0.27	inactive
NABP2 (nucleic acid binding protein 2)	0.95	inactive
NABP2 (nucleic acid binding protein 2)	0.89	inactive
TWIST2 (twist family bHLH transcription factor 2)	-1.5	inactive
TWIST2 (twist family bHLH transcription factor 2)	-1.59	active
TWIST2 (twist family bHLH transcription factor 2)	-1.3	inactive
TWIST2 (twist family bHLH transcription factor 2)	-0.96	inactive
ARL4C (ARF like GTPase 4C)	-1.28	inactive
ARL4C (ARF like GTPase 4C)	0.03	inactive
ARL4C (ARF like GTPase 4C)	-1.16	inactive
ARL4C (ARF like GTPase 4C)	0.31	inactive
FAT4 (FAT atypical cadherin 4)	-0.4	inactive
FAT4 (FAT atypical cadherin 4)	0.37	inactive
FAT4 (FAT atypical cadherin 4)	0.85	inactive
FAT4 (FAT atypical cadherin 4)	-1.06	inactive
SAC3D1 (SAC3 domain containing 1)	2.74	inactive
SAC3D1 (SAC3 domain containing 1)	4.6	active
SAC3D1 (SAC3 domain containing 1)	2.33	inactive
SAC3D1 (SAC3 domain containing 1)	3.36	active
NEFH (neurofilament heavy chain)	0.78	inactive
NEFH (neurofilament heavy chain)	0.71	inactive
NEFH (neurofilament heavy chain)	1.87	inactive
NEFH (neurofilament heavy chain)	1.36	inactive
ADNP2 (ADNP homeobox 2)	0.37	inactive
ADNP2 (ADNP homeobox 2)	0.13	inactive
ADNP2 (ADNP homeobox 2)	-0.36	inactive
ADNP2 (ADNP homeobox 2)	-0.34	inactive
BET1 (Bet1 golgi vesicular membrane trafficking protein)	1.88	inactive
BET1 (Bet1 golgi vesicular membrane trafficking protein)	1.39	inactive
BET1 (Bet1 golgi vesicular membrane trafficking protein)	0.73	inactive
BET1 (Bet1 golgi vesicular membrane trafficking protein)	1.19	inactive
METTL1 (methyltransferase 1, tRNA methylguanosine)	-0.61	inactive
METTL1 (methyltransferase 1, tRNA methylguanosine)	0.09	inactive
METTL1 (methyltransferase 1, tRNA methylguanosine)	-0.68	inactive
METTL1 (methyltransferase 1, tRNA methylguanosine)	1	inactive
RAB11A (RAB11A, member RAS oncogene family)	-0.21	inactive
RAB11A (RAB11A, member RAS oncogene family)	-0.96	inactive
RAB11A (RAB11A, member RAS oncogene family)	0.3	inactive
RAB11A (RAB11A, member RAS oncogene family)	-0.43	inactive
CLDN9 (claudin 9)	1.48	inactive
CLDN9 (claudin 9)	0.62	inactive
CLDN9 (claudin 9)	-0.27	inactive
CLDN9 (claudin 9)	0.36	inactive
CAMTA1 (calmodulin binding transcription activator 1)	0.63	inactive
CAMTA1 (calmodulin binding transcription activator 1)	2.15	inactive
CAMTA1 (calmodulin binding transcription activator 1)	0.36	inactive
CAMTA1 (calmodulin binding transcription activator 1)	1.06	inactive
IPCEF1 (interaction protein for cytohesin exchange factors 1)	-0.49	inactive
IPCEF1 (interaction protein for cytohesin exchange factors 1)	0.93	inactive
IPCEF1 (interaction protein for cytohesin exchange factors 1)	0.79	inactive
IPCEF1 (interaction protein for cytohesin exchange factors 1)	0.53	inactive
FABP5 (fatty acid binding protein 5)	-1.33	inactive
FABP5 (fatty acid binding protein 5)	1.42	inactive
FABP5 (fatty acid binding protein 5)	0.71	inactive
FABP5 (fatty acid binding protein 5)	1.5	inactive
TMPRSS3 (transmembrane serine protease 3)	-1.23	inactive
TMPRSS3 (transmembrane serine protease 3)	-0.59	inactive
TMPRSS3 (transmembrane serine protease 3)	0.07	inactive
TMPRSS3 (transmembrane serine protease 3)	-0.49	inactive
ANAPC1 (anaphase promoting complex subunit 1)	-0.48	inactive
ANAPC1 (anaphase promoting complex subunit 1)	0.02	inactive
ANAPC1 (anaphase promoting complex subunit 1)	-0.23	inactive
RUSC1-AS1 (RUSC1 antisense RNA 1)	0.49	inactive
RUSC1-AS1 (RUSC1 antisense RNA 1)	0.38	inactive
RUSC1-AS1 (RUSC1 antisense RNA 1)	1.22	inactive
RUSC1-AS1 (RUSC1 antisense RNA 1)	1.12	inactive
PTPRJ (protein tyrosine phosphatase receptor type J)	0.34	inactive
PTPRJ (protein tyrosine phosphatase receptor type J)	0	inactive
PTPRJ (protein tyrosine phosphatase receptor type J)	0.02	inactive
PTPRJ (protein tyrosine phosphatase receptor type J)	-0.01	inactive
